The values that follow are results of earlier work, collected in PMC7717712, “The effects of cardiac drugs on human erythrocyte carbonic anhydrase I and II isozymes” (Journal of Enzyme Inhibition and Medicinal Chemistry, 2020).

For series [1], the target named is protein kinase C. Conditions: read-out: IC50, protein kinase C; cited from earlier work.
Series [2] deals with ATPase. Conditions: read-out: IC50, ATPase activity; cited from earlier work.

One may read the IC50 as the point on the concentration scale where inhibition reaches its midpoint. Turning to `CC(C)NCC(O)COc1cccc2ccccc12` (centres unmarked) [Propranolol], the IC50 is roughly 150 µM in series [1] and 4400 µM in series [2].
